Data reported in patent publication US20140288000A1 (University of California, published 2014).
No constants are given. Whether binding was seen depends on the method and setting. Some results given as binding are weak or reduced against the parent protein; the word gives no strength.

Amino acid sequences for entries named in this document (tags omitted). Residues count along the entry.
UniProt P00747, residues 97-810: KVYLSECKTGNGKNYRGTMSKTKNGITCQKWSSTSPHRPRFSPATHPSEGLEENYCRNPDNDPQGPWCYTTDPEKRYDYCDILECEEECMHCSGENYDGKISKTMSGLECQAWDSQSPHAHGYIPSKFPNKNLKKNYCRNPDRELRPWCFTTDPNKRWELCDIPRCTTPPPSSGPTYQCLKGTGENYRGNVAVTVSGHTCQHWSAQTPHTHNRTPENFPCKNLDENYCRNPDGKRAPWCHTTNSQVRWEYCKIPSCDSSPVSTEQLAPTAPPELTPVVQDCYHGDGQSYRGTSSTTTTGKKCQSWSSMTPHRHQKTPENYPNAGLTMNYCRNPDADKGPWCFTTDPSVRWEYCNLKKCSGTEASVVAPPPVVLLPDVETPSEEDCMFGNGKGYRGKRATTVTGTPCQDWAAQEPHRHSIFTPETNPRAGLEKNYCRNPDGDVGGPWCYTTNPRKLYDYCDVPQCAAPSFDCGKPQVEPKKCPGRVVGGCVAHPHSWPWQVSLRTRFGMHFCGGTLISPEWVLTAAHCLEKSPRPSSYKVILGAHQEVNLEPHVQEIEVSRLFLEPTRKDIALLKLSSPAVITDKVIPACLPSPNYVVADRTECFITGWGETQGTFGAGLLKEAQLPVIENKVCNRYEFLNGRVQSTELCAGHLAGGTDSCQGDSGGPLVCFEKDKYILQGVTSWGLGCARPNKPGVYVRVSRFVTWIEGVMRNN

Target: human plasmin (human, UniProt P00747 97-810, limits assumed)
Assay: plasmin amidolytic activity assay with chromogenic substrate S-2251, inhibitor concentration varied

Binder	binding
plasmin-inhibiting polypeptide comprising the amino acid sequence set forth in SEQ ID NO:5 (designed binder) NAEICLLPLDYGPCRARLLRYYYDRYTQSCRQFLYGGCEGNANNFYTWEACDDACWRIEK	binds
plasmin-inhibiting polypeptide comprising the amino acid sequence set forth in SEQ ID NO:3 (designed binder) NAEICLLPLDTGPCRARLLRYYYDRYTQSCRQFLYGGCEGNANNFYTWEACDDACWRIEK	binds
